Source: PubChem BioAssay AID602346 (Broad Institute, 2012)
The campaign covered roughly 340,000 compounds. About 1,200 (0.35%) were called active. The shares of active, inactive and inconclusive entries below differ from those in the screen. Cut-off read from the data, not from the text of the source: active = inhibition above about 50% (passing the limit was not always enough); inconclusive = no clear call, values can overlap the other calls; inactive = below about 31%.

Experiment: blockers of Vif multimerization in cells – imaging, HEK293T, single point, primary screen (AID 602346)
Settings: Vif self-association by quenched fluorescence, 24 h, at 7.49 µM, hits give high values
For `CC(C)N(C(=O)Cn1c(=O)oc2ccccc21)c1ccccc1`, the inhibition was inconclusive: 38.1%. For `CCNC(=O)C1CC(=O)N(c2ccc(OCC)cc2)C1` (stereo unspecified), the inhibition was inactive: 8.2%. In the case of `CN(C(=O)c1cccc(NC(=O)Cc2ccc(NC(=O)C3CCCN(S(=O)(=O)c4cccc([N+](=O)[O-])c4)C3)cc2)c1)C1CCC1` (stereo unspecified), the inhibition was inactive: -9.52%. With `CC1Cc2cc(/C(O)=C3/C(=O)C(=O)N(CC4CCCO4)C3c3ccco3)ccc2O1` (stereo unspecified) the inhibition was inconclusive: 48.7%. In the case of `CC1(C)NC(=O)N(CCOc2ccc([N+](=O)[O-])cc2)C1=O`, the inhibition was inconclusive: 37.2%. For `CN(C)C(=O)c1cccc(-c2cnc3c(NC=O)cc(-c4ccccc4N(C)C)cn23)c1`, the inhibition was inconclusive: 45.3%. For `COc1ccc(CC(=O)Nc2ccc3nc(C)sc3c2)cc1OC`, the inhibition was inconclusive: 33%. In the case of `CC1=NNC(=O)/C1=C\c1cn(-c2ccccc2)nc1-c1cccs1`, the inhibition was inconclusive: 48.1%. With `CCOc1ccc(N2CC(C(=O)Nc3nnc(C4CCCCC4)s3)CC2=O)cc1` (stereo unspecified) the inhibition was inconclusive: 37.8%. In the case of `CC1CN(C(C)C)C(C)CC1OC(=O)c1ccccc1` (stereo unspecified), the inhibition was inconclusive: 46.2%. With `FC(F)(F)c1nnc2c3ccccc3c(Cl)nn12` the inhibition was active: 78.3%. With `CC(C)(C)CC(C)(C)NC(=S)Nc1ccc2nc(-c3ccccn3)c(-c3ccccn3)nc2c1` the inhibition was inconclusive: 40.3%. With `Cc1ccc(S(=O)(=O)N2CCN(C(=O)C(F)(F)F)C2c2ccc(N(C)C)cc2)cc1` (stereo unspecified) the inhibition was inconclusive: 24.9%. In the case of `O=C(CSc1ccccc1C(=O)O)c1ccc(Cl)cc1`, the inhibition was inactive: -12.1%. With `O=C(O)c1ccc(N/N=C/c2ccc3nccnc3c2)cc1` the inhibition was inactive: -5.82%. In the case of `COc1ccccc1NC(=O)C1=C(C)Nc2nc(-c3cccnc3)nn2C1c1ccccn1` (stereo unspecified), the inhibition was inconclusive: 28.9%. In the case of `CC(/C=C/c1ccccc1)=N/NC(=O)c1cnccn1`, the inhibition was inactive: 6.57%. With `O=C(Nc1ccc(F)cc1F)c1cc(-c2ccc3c(c2)OCO3)on1` the inhibition was inconclusive: 36.7%. In the case of `CC(C)CN(CC(C)C)c1nc(N)c(C#N)c(CC#N)c1C#N`, the inhibition was inconclusive: 33.1%. In the case of `COCCCn1c(=O)/c(=C\c2ccccc2OC(F)F)s/c1=C(/C#N)C(N)=O`, the inhibition was active: 139%. For `CC(C)(C)C(=O)NC(Nc1cccc2cccnc12)C(Cl)(Cl)Cl` (stereo unspecified), the inhibition was inconclusive: 31.8%. With `N#Cc1c2c(c(NCc3ccco3)n3c1nc1ccccc13)CCC2` the inhibition was inconclusive: 33.9%. For `CCOC(=O)NC(=O)COC(=O)CCCSc1nc2ccccc2s1`, the inhibition was inconclusive: 34.4%. With `O=C(COc1ccccc1)NCC1COc2ccccc2O1` (stereo unspecified) the inhibition was inconclusive: 43.4%. With `Cc1ccc(NC(=O)CN(C)C(=O)CSc2nnc(C)s2)cc1` the inhibition was inconclusive: 17.9%. With `COc1ccc(NC(=O)CN(C)S(=O)(=O)c2cccc3nsnc23)cc1` the inhibition was inconclusive: 31.8%. In the case of `CCn1c(COc2cccc(OC)c2)nnc1SCC(=O)NC1CCCC1`, the inhibition was active: 50.9%. In the case of `COc1ccc(C(=O)/C=C/Nc2ccc(C)cn2)cc1OC`, the inhibition was inconclusive: 35.8%. With `COCOc1cc(O)c(C(=O)/C=C/c2ccccc2)c(OCOC)c1` the inhibition was inconclusive: 42.6%. For `Cc1ccc(C(=O)Nc2c(N)nc(SCC(=O)NCC3CCCO3)[nH]c2=O)cc1` (stereo unspecified), the inhibition was inconclusive: 40.3%. With `CC1(C(=O)NS(=O)(=O)C2CC2)CCN(C(=O)c2ccccc2F)C1` (stereo unspecified) the inhibition was inconclusive: 17.4%. In the case of `C=CCC(CC=C)(NC(=O)c1ccccc1C(=O)O)c1ccccc1`, the inhibition was inconclusive: 28.6%. In the case of `COc1ccc(C(=O)N2CCN(c3ccc([N+](=O)[O-])c(-n4nc(C)cc4C)c3)CC2)cc1`, the inhibition was inactive: -10.7%. For `O=C(NCc1ccco1)c1cccc(NC(=O)c2ccco2)c1`, the inhibition was inconclusive: 35.9%. For `CC(NC(=O)/C(C#N)=C/c1ccc([N+](=O)[O-])o1)c1ccccc1` (stereo unspecified), the inhibition was inconclusive: 43.9%. With `O=C(c1ccc(CS(=O)c2ccccc2Cl)o1)N1CCN(c2ccccn2)CC1` (stereo unspecified) the inhibition was inactive: 1.49%. In the case of `Cc1nn(Cc2c(Cl)cccc2Cl)c(C)c1NC(=O)c1cnn2c(C(F)F)cc(-c3ccccc3)nc12`, the inhibition was active: 104%. In the case of `O=C(CN(Cc1ccccc1F)C(=O)Cn1nnc(-c2cccs2)n1)NCC1CCCO1` (stereo unspecified), the inhibition was inconclusive: 42.5%. In the case of `CC(=O)Nc1ccc(SCC(=O)NC(=O)c2ccc(S(=O)(=O)N(C)C)cc2)cc1`, the inhibition was active: 83.2%. For `Cc1ccc(S(=O)(=O)C(NC(=O)c2ccccc2)=C(Cl)Cl)cc1`, the inhibition was inconclusive: 48.9%. In the case of `COc1cccc(C(C(=O)Nc2ccc(F)cc2)N(C(=O)Cn2nnc3ccccc32)C2CC2)c1` (stereo unspecified), the inhibition was inconclusive: 31.7%. With `COCCCNC(=O)COc1cc(C)c(Cl)c(C)c1` the inhibition was inconclusive: 43.7%. In the case of `CCN(CC)C(=O)COc1c(-c2ccco2)oc2ccccc2c1=O`, the inhibition was inactive: -2.15%. In the case of `O=S(=O)(Nc1ccc(NS(=O)(=O)c2ccccc2)cc1)c1ccccc1`, the inhibition was inactive: 0.258%. With `NC(=O)c1ccccc1OCC(=O)NS(=O)(=O)c1ccccc1` the inhibition was active: 56.1%. In the case of `CCN(CC)C(=O)c1cccc(NC(=O)c2cc(-c3ccccn3)nc3ccccc23)c1`, the inhibition was inactive: 0.151%. In the case of `CN(C)Cc1c(O)c(Cl)cc2c3c(c(=O)oc12)CCCC3`, the inhibition was inconclusive: 28.9%. In the case of `COc1ccc(/C=N/n2c(-c3ccc(C)cc3)n[nH]c2=S)cc1OC`, the inhibition was active: 99.2%. In the case of `Cc1cc(Nc2cc(N3CCN(C)CC3)nc(Sc3ccc(NC(=O)C4CC4)cc3)n2)n[nH]1`, the inhibition was inconclusive: 32%. For `O=S(=O)(NC1CCCCC1)c1ccc(Cl)nc1`, the inhibition was inconclusive: 30.2%. With `COc1ccc(C2C(C(=O)c3ccco3)=C(O)C(=O)N2CC2CCCO2)cc1OC` (stereo unspecified) the inhibition was inconclusive: 41%. For `Cn1c(SCC(=O)Nc2ccc3cn[nH]c3c2)nnc1-c1cccs1`, the inhibition was inconclusive: 36.8%. With `C=CCOc1cccc(CNc2cccc(C(=O)O)c2)c1` the inhibition was inconclusive: 34.4%. For `CN(C)CCCNc1cn[nH]c(=O)c1Cl`, the inhibition was inconclusive: 31.6%. In the case of `O=C(Nc1ccccc1C(=O)NC1CCCC1)NC1CCCC1`, the inhibition was inconclusive: 30.7%. For `O=C(COC(=O)c1ccccc1Br)NC1CCCC1`, the inhibition was active: 79.9%.
